The results in this text go back to PMC7933155, “IL-23p19 and CD5 antigen-like form a possible novel heterodimeric cytokine and contribute to experimental autoimmune encephalomyelitis development” (Scientific Reports, 2021).

These are yes or no findings as the source states them, for the method shown. In cells and extracts the contact can be indirect. Where a sequence is shown, tags or fusion partners need not be part of it.

This assay concerns the target T1, mouse CD5 antigen-like with c-MYC tag (pCMV3-CD5L-c-MYC) (mouse) (UniProt Q9QWK4).
T1 sequence: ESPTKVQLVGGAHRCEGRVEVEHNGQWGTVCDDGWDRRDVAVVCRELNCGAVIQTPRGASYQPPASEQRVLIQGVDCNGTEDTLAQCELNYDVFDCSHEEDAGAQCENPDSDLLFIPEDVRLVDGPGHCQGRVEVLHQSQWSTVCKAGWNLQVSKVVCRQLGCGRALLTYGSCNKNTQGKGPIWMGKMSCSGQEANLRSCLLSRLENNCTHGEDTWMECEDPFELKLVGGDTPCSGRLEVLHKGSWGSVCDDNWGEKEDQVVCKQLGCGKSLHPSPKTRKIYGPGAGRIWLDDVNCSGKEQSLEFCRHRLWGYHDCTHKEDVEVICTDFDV
The assay can be described thus: co-IP; HEK293-F cells transiently cotransfected, 3 days; cell lysates (1% Nonidet P-40, 10 mM Tris-HCl pH 7.5, 150 mM NaCl, 1 mM EDTA) or culture supernatants; IP with anti-FLAG (M2) or anti-c-MYC (9E10) on protein G-Sepharose, 2 h to overnight at 4 °C; reducing SDS-PAGE; western blot with biotin-conjugated anti-c-MYC or anti-p19. Background: Immunoblotting shows a protein as a band on a membrane.

Turning to “mouse IL-23 p19 mutant C55S with C-terminal 3×FLAG (p3×FLAG-CMV-14-p19^C55S)”, the binding result is “no binding”.
